# Results as given in the supplement of paper PMC10849652.
# By UniProt entry, the sequences of proteins in these tests, tags left out. Where a name states a change or a piece, a line headed by the entry shows the natural chain unless it says otherwise.
# UniProt Q9NS00: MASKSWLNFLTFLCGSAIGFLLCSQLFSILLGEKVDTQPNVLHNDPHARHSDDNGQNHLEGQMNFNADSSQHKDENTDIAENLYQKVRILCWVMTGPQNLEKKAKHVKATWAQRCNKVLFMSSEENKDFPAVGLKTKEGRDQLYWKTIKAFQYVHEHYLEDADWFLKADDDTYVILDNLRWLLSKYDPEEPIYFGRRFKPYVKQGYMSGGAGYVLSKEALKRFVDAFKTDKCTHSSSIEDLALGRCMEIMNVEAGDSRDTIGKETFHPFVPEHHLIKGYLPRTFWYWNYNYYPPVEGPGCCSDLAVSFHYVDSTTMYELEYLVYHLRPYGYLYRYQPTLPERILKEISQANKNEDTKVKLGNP
# UniProt Q96LT7: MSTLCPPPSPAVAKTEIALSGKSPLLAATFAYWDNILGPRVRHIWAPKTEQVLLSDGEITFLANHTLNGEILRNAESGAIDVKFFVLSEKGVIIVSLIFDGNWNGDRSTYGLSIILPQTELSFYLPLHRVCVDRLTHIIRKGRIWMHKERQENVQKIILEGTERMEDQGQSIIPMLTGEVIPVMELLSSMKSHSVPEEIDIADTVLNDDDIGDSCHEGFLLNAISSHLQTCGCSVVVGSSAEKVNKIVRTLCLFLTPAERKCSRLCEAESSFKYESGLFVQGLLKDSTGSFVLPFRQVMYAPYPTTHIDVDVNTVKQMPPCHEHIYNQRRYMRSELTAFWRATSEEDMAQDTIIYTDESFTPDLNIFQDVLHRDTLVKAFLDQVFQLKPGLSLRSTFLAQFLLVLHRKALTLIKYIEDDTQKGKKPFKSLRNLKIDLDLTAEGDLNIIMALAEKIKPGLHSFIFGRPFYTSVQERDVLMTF
# UniProt Q9H8G2: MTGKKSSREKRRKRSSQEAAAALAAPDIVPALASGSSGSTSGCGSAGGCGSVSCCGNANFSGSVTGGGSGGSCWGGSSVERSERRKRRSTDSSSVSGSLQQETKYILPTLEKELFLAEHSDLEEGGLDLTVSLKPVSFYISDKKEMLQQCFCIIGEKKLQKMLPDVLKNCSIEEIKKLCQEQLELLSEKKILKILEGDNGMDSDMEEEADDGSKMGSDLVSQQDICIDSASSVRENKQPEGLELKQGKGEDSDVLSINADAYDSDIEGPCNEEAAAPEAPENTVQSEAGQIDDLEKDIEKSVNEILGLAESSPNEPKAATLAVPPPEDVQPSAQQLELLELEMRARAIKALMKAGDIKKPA
# UniProt Q96B23: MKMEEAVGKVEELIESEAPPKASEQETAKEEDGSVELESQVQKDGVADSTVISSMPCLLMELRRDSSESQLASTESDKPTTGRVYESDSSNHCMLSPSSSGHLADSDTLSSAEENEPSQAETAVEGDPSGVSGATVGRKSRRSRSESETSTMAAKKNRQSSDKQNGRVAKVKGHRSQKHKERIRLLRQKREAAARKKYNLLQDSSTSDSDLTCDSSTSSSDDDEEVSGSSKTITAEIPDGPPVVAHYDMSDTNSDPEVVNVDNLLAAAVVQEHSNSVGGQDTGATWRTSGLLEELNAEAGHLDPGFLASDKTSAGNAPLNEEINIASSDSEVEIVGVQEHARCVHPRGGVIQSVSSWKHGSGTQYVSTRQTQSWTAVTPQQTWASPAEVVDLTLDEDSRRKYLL
# UniProt Q10589, whole entry, looked up: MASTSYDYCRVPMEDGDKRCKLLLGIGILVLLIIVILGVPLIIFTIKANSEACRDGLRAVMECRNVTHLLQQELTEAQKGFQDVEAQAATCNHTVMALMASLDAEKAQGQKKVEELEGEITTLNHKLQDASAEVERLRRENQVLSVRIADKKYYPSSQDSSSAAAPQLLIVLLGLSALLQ
# UniProt Q9BRD0: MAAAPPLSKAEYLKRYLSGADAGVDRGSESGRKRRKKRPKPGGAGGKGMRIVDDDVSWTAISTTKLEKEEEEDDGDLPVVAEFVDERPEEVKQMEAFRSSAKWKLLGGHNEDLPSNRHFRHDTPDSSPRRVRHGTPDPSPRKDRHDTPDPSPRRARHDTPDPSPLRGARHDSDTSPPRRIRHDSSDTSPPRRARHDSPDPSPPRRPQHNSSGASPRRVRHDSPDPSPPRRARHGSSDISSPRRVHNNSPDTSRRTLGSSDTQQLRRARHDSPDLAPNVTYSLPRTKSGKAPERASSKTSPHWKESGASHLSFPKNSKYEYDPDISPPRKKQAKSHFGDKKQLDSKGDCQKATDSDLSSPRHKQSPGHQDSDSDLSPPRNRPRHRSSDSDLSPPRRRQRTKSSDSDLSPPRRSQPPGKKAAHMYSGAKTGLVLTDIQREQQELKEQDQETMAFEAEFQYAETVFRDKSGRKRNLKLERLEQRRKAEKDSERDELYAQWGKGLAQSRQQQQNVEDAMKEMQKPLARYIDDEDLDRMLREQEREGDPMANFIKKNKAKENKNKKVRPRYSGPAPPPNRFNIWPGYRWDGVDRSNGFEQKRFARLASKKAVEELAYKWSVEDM
# UniProt Q13555: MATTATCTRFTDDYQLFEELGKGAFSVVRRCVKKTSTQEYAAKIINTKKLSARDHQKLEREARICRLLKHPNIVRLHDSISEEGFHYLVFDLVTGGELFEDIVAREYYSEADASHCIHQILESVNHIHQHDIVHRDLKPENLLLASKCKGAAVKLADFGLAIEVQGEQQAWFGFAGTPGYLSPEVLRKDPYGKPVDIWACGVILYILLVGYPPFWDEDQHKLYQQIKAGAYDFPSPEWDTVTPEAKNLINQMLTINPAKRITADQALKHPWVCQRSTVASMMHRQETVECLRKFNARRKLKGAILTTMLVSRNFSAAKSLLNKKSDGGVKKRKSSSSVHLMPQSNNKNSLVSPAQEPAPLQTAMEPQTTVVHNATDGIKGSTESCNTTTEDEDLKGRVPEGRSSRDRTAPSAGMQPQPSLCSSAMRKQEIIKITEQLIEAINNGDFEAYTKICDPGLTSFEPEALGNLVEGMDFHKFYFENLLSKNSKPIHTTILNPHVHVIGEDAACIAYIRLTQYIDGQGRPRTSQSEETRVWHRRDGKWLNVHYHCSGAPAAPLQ
# UniProt Q13137: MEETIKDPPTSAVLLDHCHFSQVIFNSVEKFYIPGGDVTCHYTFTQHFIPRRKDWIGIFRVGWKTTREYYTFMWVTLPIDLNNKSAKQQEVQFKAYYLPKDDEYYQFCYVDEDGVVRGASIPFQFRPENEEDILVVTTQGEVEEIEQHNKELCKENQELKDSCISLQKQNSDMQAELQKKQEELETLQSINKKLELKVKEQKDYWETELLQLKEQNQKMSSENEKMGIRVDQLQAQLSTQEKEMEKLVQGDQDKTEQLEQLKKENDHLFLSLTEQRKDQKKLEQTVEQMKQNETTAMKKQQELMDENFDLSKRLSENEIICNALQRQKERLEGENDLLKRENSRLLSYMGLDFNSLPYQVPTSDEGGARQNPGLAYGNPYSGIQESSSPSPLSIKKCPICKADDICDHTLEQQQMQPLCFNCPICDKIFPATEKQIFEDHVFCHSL
# UniProt P35219: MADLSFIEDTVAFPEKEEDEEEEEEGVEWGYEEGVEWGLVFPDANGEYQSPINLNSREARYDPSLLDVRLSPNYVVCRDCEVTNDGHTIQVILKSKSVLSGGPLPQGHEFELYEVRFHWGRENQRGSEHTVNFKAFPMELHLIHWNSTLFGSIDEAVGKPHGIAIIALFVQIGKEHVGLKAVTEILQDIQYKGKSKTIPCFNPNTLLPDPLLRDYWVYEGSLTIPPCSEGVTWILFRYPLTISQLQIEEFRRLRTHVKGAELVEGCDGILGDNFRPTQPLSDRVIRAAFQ
# UniProt Q5T6V5: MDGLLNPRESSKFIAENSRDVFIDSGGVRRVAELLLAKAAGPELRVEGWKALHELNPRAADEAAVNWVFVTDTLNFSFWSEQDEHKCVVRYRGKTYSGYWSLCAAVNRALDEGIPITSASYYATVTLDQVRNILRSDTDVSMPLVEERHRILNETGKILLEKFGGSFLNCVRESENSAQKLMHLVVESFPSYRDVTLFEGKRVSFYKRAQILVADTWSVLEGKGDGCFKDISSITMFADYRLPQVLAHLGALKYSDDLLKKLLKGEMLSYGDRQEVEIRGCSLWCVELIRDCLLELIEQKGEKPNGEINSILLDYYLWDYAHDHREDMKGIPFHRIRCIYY
# UniProt O60566, whole entry, looked up: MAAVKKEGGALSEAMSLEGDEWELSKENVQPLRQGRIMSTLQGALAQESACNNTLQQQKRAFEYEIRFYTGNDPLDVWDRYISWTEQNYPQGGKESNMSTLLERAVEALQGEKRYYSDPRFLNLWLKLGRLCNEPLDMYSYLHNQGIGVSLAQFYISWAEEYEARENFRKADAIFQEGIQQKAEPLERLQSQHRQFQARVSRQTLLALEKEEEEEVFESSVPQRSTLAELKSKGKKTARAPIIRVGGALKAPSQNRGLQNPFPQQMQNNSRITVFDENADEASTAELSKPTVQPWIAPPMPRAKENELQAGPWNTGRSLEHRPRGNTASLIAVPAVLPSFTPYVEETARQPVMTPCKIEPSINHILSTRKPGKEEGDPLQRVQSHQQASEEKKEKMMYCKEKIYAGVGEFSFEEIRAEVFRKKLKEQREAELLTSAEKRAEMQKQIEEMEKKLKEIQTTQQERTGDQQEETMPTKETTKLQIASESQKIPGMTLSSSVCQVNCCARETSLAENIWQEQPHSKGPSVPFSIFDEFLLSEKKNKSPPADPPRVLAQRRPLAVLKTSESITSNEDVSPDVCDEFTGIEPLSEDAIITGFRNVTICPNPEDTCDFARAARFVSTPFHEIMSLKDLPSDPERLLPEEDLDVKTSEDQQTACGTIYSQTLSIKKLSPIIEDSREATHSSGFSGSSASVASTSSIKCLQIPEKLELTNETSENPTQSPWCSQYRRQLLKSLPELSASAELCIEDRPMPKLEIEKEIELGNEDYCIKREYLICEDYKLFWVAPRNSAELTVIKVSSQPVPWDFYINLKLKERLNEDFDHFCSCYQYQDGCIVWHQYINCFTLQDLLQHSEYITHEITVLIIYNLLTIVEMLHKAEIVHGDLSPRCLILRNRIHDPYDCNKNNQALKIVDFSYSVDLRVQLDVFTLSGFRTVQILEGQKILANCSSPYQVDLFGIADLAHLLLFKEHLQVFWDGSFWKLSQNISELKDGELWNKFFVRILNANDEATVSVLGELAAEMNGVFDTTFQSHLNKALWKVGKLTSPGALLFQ
# UniProt P05937: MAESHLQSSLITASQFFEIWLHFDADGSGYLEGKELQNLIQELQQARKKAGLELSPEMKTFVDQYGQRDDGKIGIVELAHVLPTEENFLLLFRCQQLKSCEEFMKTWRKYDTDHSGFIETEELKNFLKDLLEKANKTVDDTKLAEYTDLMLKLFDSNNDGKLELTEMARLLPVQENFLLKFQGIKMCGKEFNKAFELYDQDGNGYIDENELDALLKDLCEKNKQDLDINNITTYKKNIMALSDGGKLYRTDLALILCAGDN
# UniProt Q9BXL7: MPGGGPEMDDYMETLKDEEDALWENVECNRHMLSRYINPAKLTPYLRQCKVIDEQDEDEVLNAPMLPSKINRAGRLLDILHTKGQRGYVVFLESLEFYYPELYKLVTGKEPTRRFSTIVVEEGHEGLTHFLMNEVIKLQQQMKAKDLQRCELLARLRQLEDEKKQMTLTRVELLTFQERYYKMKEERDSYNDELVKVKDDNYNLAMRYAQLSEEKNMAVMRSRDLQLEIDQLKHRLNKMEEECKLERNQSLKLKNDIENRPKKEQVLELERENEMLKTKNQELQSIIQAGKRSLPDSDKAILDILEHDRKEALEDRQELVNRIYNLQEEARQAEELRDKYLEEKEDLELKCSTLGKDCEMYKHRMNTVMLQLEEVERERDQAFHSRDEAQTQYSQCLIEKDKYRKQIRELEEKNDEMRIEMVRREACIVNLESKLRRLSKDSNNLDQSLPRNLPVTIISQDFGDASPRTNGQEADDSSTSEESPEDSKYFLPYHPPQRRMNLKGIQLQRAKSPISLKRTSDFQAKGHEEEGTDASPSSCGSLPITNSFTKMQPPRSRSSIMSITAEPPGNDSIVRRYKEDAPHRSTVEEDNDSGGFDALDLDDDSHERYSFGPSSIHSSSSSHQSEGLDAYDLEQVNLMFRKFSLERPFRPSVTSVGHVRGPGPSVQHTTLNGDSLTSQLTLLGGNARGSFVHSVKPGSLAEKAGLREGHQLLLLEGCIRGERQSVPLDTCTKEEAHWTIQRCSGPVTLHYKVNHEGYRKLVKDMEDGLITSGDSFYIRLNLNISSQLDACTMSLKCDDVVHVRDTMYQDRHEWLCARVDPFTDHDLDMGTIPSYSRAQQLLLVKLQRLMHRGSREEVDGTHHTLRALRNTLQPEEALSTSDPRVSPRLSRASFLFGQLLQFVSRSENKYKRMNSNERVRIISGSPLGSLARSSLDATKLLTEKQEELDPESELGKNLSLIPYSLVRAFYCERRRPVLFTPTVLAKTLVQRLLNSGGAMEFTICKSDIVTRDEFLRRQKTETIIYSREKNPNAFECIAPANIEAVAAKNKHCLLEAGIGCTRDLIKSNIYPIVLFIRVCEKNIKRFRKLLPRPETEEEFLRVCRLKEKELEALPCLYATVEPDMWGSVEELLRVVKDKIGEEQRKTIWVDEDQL
# This is one part of the list.
# Tests used:
# Experiment in all cases: log2 fold change, soluble protein after heating vs DMSO (PISA); higher = thermal stabilisation; K562 cells, 10 uM, 30 min; active = over 0.2 and 3.5 SD of the protein, either way, in both replicates (recomputed)
# [1] = compound: CS(=O)(=O)c1ccc(-c2cnc(N)c(C(=O)Nc3ccccc3)n2)cc1
# How it was run: (§1)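 For each measurement, 10 μM compound was applied for 30 min to K562 cells at 2×10^6 cells/mL. Aliquots were heated for 3 min across 48°C-58°C, pooled, and extracted in PBS with 0.5% NP-40 at 4°C; the supernatant after 21,000xg for 90 min was soluble protein. This was quantified by TMTpro 16plex LC-MS/MS with channel sums equalised, and thermal stability was reported relative to control samples from duplicates, on a log2 fold-change scale.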
# [2] = compound: C[C@@H](Oc1cc(-c2cnn(C3CCNCC3)c2)cnc1N)c1c(Cl)ccc(F)c1Cl [crizotinib]
# How it was run: as §1
# [3] = compound: C[C@@H]1COCCN1C2=NC(=NC(=C2)C3(CC3)S(=O)(=O)C)C4=C5C=CNC5=CC=C4
# How it was run: as §1
# [4] = compound: C[C@H](C1=CC=C(C=C1)C(=O)NC2=C3C=CNC3=NC=C2)N
# How it was run: as §1
# [5] = compound: C[C@H](Nc1ncnc2nc[nH]c12)c1cc2cccc(Cl)c2c(=O)n1-c1ccccc1 [duvelisib]
# How it was run: as §1
# [6] = compound: Cc1cc(Nc2cc(CN3CCOCC3)c3nc(C)c(Cc4ccc(Cl)cc4F)n3n2)n[nH]1 [gandotinib]
# How it was run: as §1
# [7] = compound: Cc1cc(Nc2cc(N3CCN(C)CC3)nc(Sc3ccc(NC(=O)C4CC4)cc3)n2)n[nH]1 [tozasertib]
# How it was run: as §1
# [8] = compound: Cc1cc(SCc2sc(-c3ccc(C(F)(F)F)cc3)nc2C)ccc1OCC(=O)O
# How it was run: as §1
# [9] = compound: Cc1ccc(-n2nc(C(C)(C)C)cc2NC(=O)Nc2ccc(OCCN3CCOCC3)c3ccccc23)cc1 [doramapimod]
# How it was run: as §1
# [10] = compound: Cc1ccc(C(=O)N(CCCN)[C@@H](c2nc3cc(Cl)ccc3c(=O)n2Cc2ccccc2)C(C)C)cc1 [ispinesib]
# How it was run: as §1
# [11] = compound: Cc1ccc(NC(=O)c2ccc(CN3CC[C@H](N(C)C)C3)c(C(F)(F)F)c2)cc1Nc1nccc(-c2cncnc2)n1 [bafetinib]
# How it was run: as §1
# [12] = compound: Cc1cccc(CC(=O)N2CCc3c2ccc(-c2cn(C)c4ncnc(N)c24)c3F)n1
# How it was run: as §1
# [13] = compound: Cc1cn(-c2cc(NC(=O)c3ccc(C)c(Nc4nccc(-c5cccnc5)n4)c3)cc(C(F)(F)F)c2)cn1 [nilotinib]
# How it was run: as §1
# [14] = compound: Cc1nc(Nc2n[nH]c3c2CN(C(=O)N[C@H](CN(C)C)c2ccccc2)C3(C)C)c2sccc2n1
# How it was run: as §1
# [15] = compound: Cc1nc(Nc2ncc(C(=O)Nc3c(C)cccc3Cl)s2)cc(N2CCN(CCO)CC2)n1 [dasatinib]
# How it was run: as §1
# [16] = compound: Cc1ncc(-c2ccnc(Nc3ccc(S(C)(=O)=O)cc3)n2)n1C(C)C
# How it was run: as §1
# [17] = compound: Cn1cc(-c2ccc3c(c2)CCN3C(=O)Cc2cccc(C(F)(F)F)c2)c2c(N)ncnc21
# How it was run: as §1
# [18] = compound: Cn1cc(-c2ccc3nnc(C(F)(F)c4ccc5ncccc5c4)n3n2)cn1
# How it was run: as §1
# [19] = compound: Cn1cncc1[C@@](N)(c1ccc(Cl)cc1)c1ccc2c(c1)c(-c1cccc(Cl)c1)cc(=O)n2C [tipifarnib]
# How it was run: as §1
# [20] = compound: FC(F)(F)c1ccc(/C=C/c2nc(COc3ccc(CCCCn4ccnn4)cc3)co2)cc1 [mubritinib]
# How it was run: as §1
Target,log2 fold change [1],log2 fold change [2],log2 fold change [3],log2 fold change [4],log2 fold change [5],log2 fold change [6],log2 fold change [7],log2 fold change [8],log2 fold change [9],log2 fold change [10],log2 fold change [11],log2 fold change [12],log2 fold change [13],log2 fold change [14],log2 fold change [15],log2 fold change [16],log2 fold change [17],log2 fold change [18],log2 fold change [19],log2 fold change [20]
C1GALT1 (UniProt Q9NS00),inactive: 0.093,inactive: -0.149,inactive: 0.089,inactive: 0.005,inactive: 0.028,inactive: -0.02,inactive: -0.014,inactive: -0.043,inactive: 0.059,inactive: -0.063,inactive: -0.069,inactive: -0.081,inactive: -0.157,inactive: 0.023,inactive: 0.033,inactive: -0.087,inactive: 0.003,inactive: 0.049,inactive: 0.026,inactive: -0.004
CAB39 (UniProt Q9Y376),inactive: 0.025,inactive: 0.039,inactive: 0.1,inactive: -0.089,inactive: 0.053,inactive: 0.003,inactive: 0.014,inactive: -0.027,inactive: -0.052,inactive: 0.038,inactive: -0.035,inactive: -0.002,inactive: 0.013,inactive: -0.008,inactive: 0.031,inactive: 0.002,inactive: 0.016,inactive: 0.028,inactive: -0.055,inactive: 0.065
C9orf72 (UniProt Q96LT7),inactive: 0.058,inactive: -0.134,inactive: -0.024,inactive: -0.048,,active: -0.313,,inactive: 0.057,inactive: 0.01,inactive: 0.04,inactive: 0.029,inactive: -0.018,inactive: 0.031,inactive: 0.073,inactive: -0.004,inactive: 0.006,inactive: 0.085,inactive: -0.05,inactive: 0.033,inactive: 0.021
C3orf38 (UniProt Q5JPI3),inactive: -0.13,inactive: -0.027,inactive: -0.075,inactive: 0.001,inactive: -0.041,,inactive: -0.015,inactive: 0.159,inactive: 0.015,inactive: -0.08,inactive: -0.031,,inactive: -0.104,inactive: -0.023,inactive: -0.2,inactive: 0.064,inactive: -0.039,inactive: 0.026,inactive: 0.044,inactive: -0.218
CAAP1 (UniProt Q9H8G2),inactive: 0.059,inactive: -0.015,inactive: -0.064,inactive: -0.09,inactive: -0.083,,inactive: 0.011,inactive: -0.123,inactive: -0.006,inactive: -0.073,inactive: 0.009,,inactive: -0.011,inactive: 0.099,inactive: 0.078,inactive: 0.021,inactive: -0.142,inactive: -0.043,inactive: 0.122,
C18orf25 isoform 2 (UniProt Q96B23),inactive: 0.02,inactive: -0.045,inactive: 0.032,inactive: 0.004,inactive: -0.06,inactive: -0.257,inactive: -0.019,inactive: 0.028,inactive: 0.042,,inactive: -0.031,inactive: 0.195,inactive: 0.044,inactive: 0.098,inactive: -0.098,inactive: -0.113,inactive: 0.018,,inactive: -0.03,inactive: 0.038
BST2 (UniProt Q10589),inactive: -0.023,inactive: 0.066,inactive: 0.006,inactive: -0.055,,inactive: -0.016,,inactive: -0.074,inactive: 0.023,inactive: -0.078,inactive: 0.061,inactive: -0.009,inactive: 0.048,inactive: -0.059,inactive: -0.016,inactive: -0.096,inactive: -0.052,inactive: 0.029,inactive: 0.036,inactive: -0.015
C19orf53 (UniProt Q9UNZ5),inactive: -0.125,inactive: 0.092,inactive: -0.553,inactive: 0.404,,inactive: 0.316,,inactive: 0.03,inactive: 0.174,inactive: -0.13,inactive: 0.271,inactive: 0.034,inactive: 0.029,inactive: 0.139,inactive: 0.222,inactive: 0.023,inactive: -0.207,inactive: -0.083,inactive: 0.165,inactive: -0.13
BUD13 (UniProt Q9BRD0),inactive: -0.072,inactive: -0.149,inactive: -0.36,inactive: 0.126,inactive: -0.107,inactive: 0.07,inactive: 0.099,inactive: -0.033,inactive: 0.206,inactive: -0.209,,inactive: -0.015,inactive: 0.076,inactive: 0.032,inactive: 0.126,inactive: -0.522,inactive: -0.261,inactive: -0.114,inactive: 0.097,inactive: -0.03
CAMK2G isoform 6 (UniProt Q13555),inactive: -0.02,inactive: -0.146,inactive: -0.064,inactive: -0.116,,inactive: -0.041,,inactive: -0.004,inactive: 0.073,inactive: 0,inactive: 0.064,inactive: -0.148,inactive: 0.002,active: 0.642,inactive: -0.11,inactive: 0.083,inactive: 0.01,inactive: -0.073,inactive: -0.025,inactive: -0.008
CALCOCO2 isoform 4 (UniProt Q13137),inactive: 0.026,active: -0.355,inactive: -0.106,inactive: 0.024,,inactive: 0.071,,inactive: -0.037,inactive: -0.002,inactive: -0.262,active: -0.647,inactive: -0.061,inactive: -0.039,inactive: 0.038,inactive: 0.01,inactive: 0.1,inactive: -0.013,inactive: -0.035,inactive: -0.015,inactive: -0.025
CA8 (UniProt P35219),inactive: 0.003,inactive: -0.008,inactive: 0.117,inactive: -0.06,,inactive: -0.064,,inactive: 0.096,inactive: -0.066,inactive: 0.103,inactive: -0.042,inactive: 0.079,inactive: 0.006,inactive: -0.017,inactive: -0.187,inactive: -0.01,inactive: 0.083,inactive: -0.063,inactive: -0.064,inactive: 0.06
C9orf64 (UniProt Q5T6V5),inactive: 0.049,inactive: -0.329,inactive: 0.091,inactive: 0,,inactive: -0.128,,inactive: 0.097,inactive: -0.005,inactive: -0.207,inactive: 0.031,inactive: 0.218,inactive: -0.045,inactive: -0.094,inactive: -0.197,inactive: -0.04,inactive: 0.079,inactive: 0.085,inactive: -0.163,inactive: 0.282
BUB1B isoform 3 (UniProt O60566),inactive: -0.015,inactive: -0.108,inactive: 0.013,inactive: 0.083,,inactive: -0.207,,inactive: 0.057,inactive: 0.047,inactive: -0.072,inactive: 0.03,inactive: 0.107,inactive: -0.089,inactive: -0.142,inactive: -0.13,inactive: 0.02,inactive: 0,inactive: 0.017,inactive: -0.114,inactive: 0.012
CALB1 (UniProt P05937),inactive: 0.033,inactive: -0.166,inactive: 0.015,inactive: -0.039,,inactive: -0.038,,inactive: 0.017,inactive: -0.006,inactive: -0.105,inactive: -0.076,inactive: -0.018,inactive: -0.018,inactive: 0.025,inactive: 0.014,inactive: -0.015,inactive: 0.013,inactive: 0.046,inactive: 0,inactive: 0.01
BYSL (UniProt Q13895),inactive: -0.003,inactive: -0.049,inactive: 0,inactive: 0.05,,inactive: -0.012,,inactive: 0.135,inactive: 0.037,inactive: -0.094,inactive: 0.118,inactive: 0.034,inactive: -0.131,inactive: 0.163,inactive: -0.082,inactive: 0.064,inactive: -0.05,inactive: -0.003,inactive: -0.063,inactive: 0.062
CARD11 (UniProt Q9BXL7),inactive: 0.066,inactive: -0.104,inactive: 0.028,inactive: 0.162,inactive: 0.042,,,inactive: 0.139,inactive: 0.009,,,,,,inactive: -0.049,,inactive: -0.012,,inactive: -0.001,

# Just log2 fold change [17] and log2 fold change [16] (two entries from above):
Target	log2 fold change [17]	log2 fold change [16]
C9orf72 (UniProt Q96LT7)	inactive: 0.085	inactive: 0.006
BST2 (UniProt Q10589)	inactive: -0.052	inactive: -0.096
